This experiment can be described thus: qHTS Assay for Lipid Storage Modulators in Drosophila S3 Cells.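 As to cell number change: cells counted by Cell Tracker Red CMTPX staining in the red channel.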 The note with it: BODIPY lipid droplet fluorescence, 18-24 h; for cell number change: measured here: cell count max response, cells fed with added oleic acid. Summed up:
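Drosophila S3 cells loaded with oleic acid (400 uM, as added) and compounds at several concentrations; lipid droplets imaged by 488-nm laser-scanning cytometry, 500–530 nm intensity and object ratio to cell channel. Percent activity normalized to 20 uM Triacsin C.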
(In general: Quantitative high-throughput screening tests each substance at several concentrations.)

The mark [1] stands for this setting: measured here: lipid fluorescence (Fed channel) AC50, cells fed with added oleic acid.
Where [2] appears, read: measured here: cell number channel AC50, cells fed with added oleic acid.

Some of the results follow. These are further read-outs of the screen, such as a control signal, another cell line or another target. No call is given for them. The list favours compounds with an active or inconclusive main result. The note in brackets gives the kind of curve behind each potency; many fits are weak.

The AC50 is the midpoint of the concentration-response curve, whichever way the signal moves. High values mean weaker potency, low ones greater potency. For the molecule `COc1ccc(C(=O)O)cc1S(=O)(=O)NCCCN1CCCC1=O`, the cell number change was determined as 7.95%. For the same molecule, the AC50 under setting [1] was 25.9 µM [falling, single point].
Consider `O=C1NC(=O)/C(=C/c2cc3c(cc2Br)OCO3)S1`, for which the cell number change is -19.6%. Under setting [1], the concentration at half-maximal activity (AC50) was 29.1 µM [falling, single point].
As to `COc1cc(NC(=O)Cc2ccccc2)cc(OC)c1`, the cell number change was 9.03%.
`CCOc1ccc2oc(C(=O)NCC(C)(C)CN(C)C)c(C)c2c1`: the cell number change is 39.8%. Further, the AC50 under setting [2] was 29.1 µM [rising, single point].
In the case of `C=CCN1C(=O)c2ccc(C(=O)N(C)CC(=O)Nc3ccc(Br)cc3C)cc2C1=O`, the cell number change was 38.1%. Besides, the AC50 under setting [2] was 0.731 µM [rising, full curve]. For the same molecule, under setting [1], the half-maximal activity concentration (AC50) is 2.31 µM [rising, partial curve].
For the molecule `CCn1c(SCC(=O)NC2CC2)nnc1-c1ccccc1OC`, the AC50 under setting [1] is 29.1 µM [rising, single point].
In the case of `CC1CN(CCOCCSc2ccc(Cl)cc2)CC(C)O1` (stereo not drawn), the cell number change was 7.62%. The AC50 under setting [1] is 29.1 µM [falling, single point].
With `COc1cc(=O)[nH]c(SC(C)C(=O)Nc2ccc3ccccc3c2)n1` (stereo not drawn), the cell number change turned out to be 20.9%.
Still for that read-out and setting: as for `CSc1ccc(Cl)c(C(=O)NCC(C)C)c1`, the figure is 6.2%.
For the molecule `O=C(O)COc1cccc2nsnc12`, the AC50 under setting [2] was 1.64 µM [rising, partial curve].
Turning to `O=C(NCCCNc1ccc([N+](=O)[O-])cc1)C(F)(F)F`, the cell number change was -29%. The concentration at half-maximal activity (AC50) under setting [2] is 0.259 µM [falling, full curve, poor fit]. For the same molecule, the AC50 under setting [1] was 0.326 µM [falling, full curve].
As to `CC(Oc1ccc2c(c1)oc(=O)c1ccccc12)C(=O)NCCN1CCOCC1` (stereo not drawn), the cell number change is -0.895%.
The same measure, in the same setting: as for `O=C(NCc1ccccn1)Nc1ccccc1Cl`, the figure is 14.5%.
Regarding `CCc1nccn1CCC(=O)NC1CC(C)(C)Cc2c1cnn2-c1ccc(OC)cc1` (stereo not drawn), the cell number change came out at 52.8%. Also, under setting [2], the AC50 was 29.1 µM [rising, single point]. In addition, under setting [1], the AC50 is 29.1 µM [rising, single point].
Turning to `N#CCC(=O)N/N=C/c1ccc(OS(=O)(=O)c2ccccc2)cc1`, the cell number change is 73%. Moreover, the AC50 under setting [2] is 2.31 µM [rising, full curve]. The AC50 under setting [1] is 2.06 µM [rising, partial curve].
As to `C/C(CC(=O)NCCCN1CCOCC1)=N\NC(=O)COc1ccc(Cl)cc1`, the cell number change is 6.61%. Moreover, under setting [1], the AC50 was 32.6 µM [rising, single point].
In the case of `Nc1ccccc1Nc1c(F)c(F)nc(F)c1Cl`, the cell number change came to 60.4%. Under setting [2], the AC50 is 29.1 µM [rising, single point].
For the molecule `Nc1c(C(=O)Nc2nccs2)sc2nc(-c3cccs3)cc(C(F)(F)F)c12`, the cell number change was -72%. Under setting [1], the AC50 is 11.6 µM [falling, single point].
For `CCOC(=O)C1=C(CC)Nc2ccccc2N/C1=N\S(=O)(=O)c1ccc2ccccc2c1`, the cell number change was determined as 31.7%.
Regarding `COc1ccc(CC(=O)Nc2ccc(N3CCCC3)c(C)c2)cc1`, the cell number change was determined as 7.66%. Moreover, the AC50 under setting [1] was 29.1 µM [rising, single point].
For the molecule `CN(C)C=NC(=O)c1ccc(N2CCN(c3ncc(C(F)(F)F)cc3Cl)CC2)cc1`, the cell number change was -23.2%. Further, under setting [2], the AC50 is 0.517 µM [rising, single point]. Also, the AC50 under setting [1] is 0.184 µM [falling, full curve, poor fit].
As for `CS(=O)(=O)N1CCN(c2ccc(Cl)cc2[N+](=O)[O-])CC1`, the cell number change is -22.7%. The AC50 under setting [2] is 0.82 µM [falling, full curve]. Further, the AC50 under setting [1] was 0.82 µM [falling, partial curve, poor fit].
Consider `COc1ccc(CCC(C(O)C(F)(F)F)S(=O)c2ccccc2)cc1` (stereo not drawn), for which the AC50 under setting [1] is 0.731 µM [falling, single point].
Turning to `CSc1nnc(-c2ccc(S(=O)(=O)N3CCCC3)cc2)n1C`, the cell number change is 7.74%. Besides, the AC50 under setting [1] is 18.4 µM [rising, single point].
With `Cc1ccc(-c2csc3ncnc(-n4nnc5ccccc54)c23)cc1C`, the cell number change is -2.84%. Further, the AC50 under setting [1] was 0.259 µM [falling, full curve, poor fit].
As for `COC(=O)c1cccc(NC(=O)c2ccc3c(c2)C(=O)N(Cc2cccnc2)C3=O)c1C`, the cell number change came to 11.9%. For the same molecule, the AC50 under setting [1] is 29.1 µM [rising, single point].
As for `CC(=O)Nc1ccc(NC(=O)CCCCCn2nnc3ccccc3c2=O)cc1`, the cell number change turned out to be 78%. Further, the half-maximal activity concentration (AC50) under setting [2] was 6.51 µM [rising, partial curve]. Under setting [1], the AC50 was 3.66 µM [rising, full curve].
Consider `COc1ccc(/C=C/C(=O)OCC(=O)Nc2cc3oc4ccccc4c3cc2OC)cc1`, for which the cell number change was found to be 6.53%. Besides, under setting [2], the AC50 was 3.55 µM [falling, single point]. For the same molecule, under setting [1], the AC50 is 3.16 µM [falling, single point].
As for `c1ccc2c(NCCc3c[nH]c4ccccc34)c3ccccc3nc2c1`, the cell number change was -55.9%. In addition, the AC50 under setting [2] was 29.1 µM [falling, single point]. In addition, the AC50 under setting [1] was 29.1 µM [falling, single point].
As to `Cc1cc(C)[n+](-c2ccc(Oc3ccccc3)c(S(=O)(=O)[O-])c2)[nH]1`, the cell number change was -24%.
On to `O=C(Nc1nn[nH]n1)c1cccc([N+](=O)[O-])c1`, for which the cell number change was -28.6%. Also, the concentration at half-maximal activity (AC50) under setting [1] is 0.164 µM [falling, full curve, poor fit].
In the case of `O=C(COc1ccc(Cl)cc1)Nc1ccccc1N1CCOCC1`, the cell number change is 4.14%. In addition, under setting [1], the AC50 is 0.092 µM [rising, full curve, poor fit].
Consider `CC1CCC(n2c(=S)[nH]c3ccccc3c2=O)CC1` (stereo not drawn), for which the cell number change is -31.3%. Besides, under setting [2], the half-maximal activity concentration (AC50) is 23.1 µM [falling, single point].
With `CCOc1ccc(NC(=O)Cc2ccccc2)cc1`, the cell number change came out at 18.8%. In addition, the AC50 under setting [1] was 16.4 µM [rising, partial curve, poor fit].
For `CCOC(=O)C1CCCN(S(=O)(=O)c2ccc3c4c(cccc24)C(=O)N3CC)C1` (stereo not drawn), the cell number change was -15.4%. The AC50 under setting [1] is 0.58 µM [falling, single point].
Take `C/C(=N\NC(=O)c1ccc(Cl)c(Cl)c1)c1cccc(NC(=O)C(C)C)c1`: the cell number change came out at 160%. Moreover, the AC50 under setting [2] is 29.1 µM [rising, single point]. Besides, the AC50 under setting [1] is 29.1 µM [rising, single point].
Consider `CCN(CC)c1ccc(C=Nc2ccc(N(C)C)cc2)c(O)c1`, for which the cell number change came out at 42.4%. The concentration at half-maximal activity (AC50) under setting [2] was 29.1 µM [rising, single point]. The AC50 under setting [1] is 29.1 µM [falling, single point].
Turning to `O=C(CCSc1nnc(-c2ccco2)o1)Nc1ccc(Cl)cc1`, the cell number change was -7.51%. In addition, the AC50 under setting [2] was 0.206 µM [falling, full curve, poor fit]. For the same molecule, the AC50 under setting [1] was 0.116 µM [falling, full curve, poor fit].
Take `O=C(/C=C/c1ccccc1Cl)NCCc1ccc(F)cc1`: the cell number change came to 32%. Under setting [2], the AC50 is 3.26 µM [rising, partial curve]. Also, the AC50 under setting [1] is 4.61 µM [rising, partial curve].
Turning to `O=C(NC(=S)Nc1cccc2c(O)cccc12)c1ccco1`, the cell number change was -33.8%. In addition, the AC50 under setting [2] was 16.4 µM [falling, single point].
`CC(=O)c1ccc(-n2c(=O)[nH]c(=O)c3c(N)c(C(=O)c4ccc(Cl)cc4)sc32)cc1`: the cell number change was -5.84%.
Regarding `O=C1/C(=C/c2ccccc2)SC(=S)N1CCCC(=O)N1CCCCC1CCO` (stereo not drawn), the AC50 under setting [1] was 29.1 µM [falling, single point].
`CC(=O)Oc1ccc2c(c1)Oc1cc(OC(C)=O)ccc1C21OC(=O)c2ccccc21`: the cell number change was -95.3%. Under setting [2], the AC50 was 0.58 µM [falling, full curve]. Further, the AC50 under setting [1] was 0.184 µM [falling, full curve].
Consider `CCCc1cc(=O)n2[nH]cc(-c3ccc(Cl)cc3)c2n1`, for which the cell number change is -39.9%. For the same molecule, the AC50 under setting [2] is 16.4 µM [falling, single point].
For `Cc1ccc(N2CC(C(=O)Nc3ccccc3N3CCCC3)CC2=O)cc1` (stereo not drawn), the cell number change was 9.99%. Also, under setting [1], the AC50 is 2.59 µM [rising, partial curve, poor fit].
For `Cc1cc(-c2ccc(/C=N/n3cnnc3)o2)ccc1Cl`, the cell number change was -8.68%. The AC50 under setting [1] is 29.1 µM [falling, single point].
As for `CCOc1cc(/C=C2\C(=N)N3N=CSC3=NC2=O)ccc1OS(=O)(=O)c1ccccc1`, the AC50 under setting [1] was 11.6 µM [falling, single point].
Regarding `Cc1cccc(C)c1NC(=O)COC(=O)c1cc(=O)[nH]c2ccccc12`, the cell number change was 30.6%. In addition, under setting [1], the AC50 is 32.6 µM [rising, partial curve, poor fit].
As for `Cc1ccc(NC(=O)Nc2cc(S(=O)(=O)N(C)C)ccc2C)cc1`, the cell number change stood at 19.9%. Also, under setting [1], the AC50 was 0.651 µM [rising, single point].
For the molecule `COc1ccc(Cc2nnc(NC(=O)c3ccccc3)s2)cc1OC`, the cell number change is -17.9%. Also, under setting [2], the AC50 was 0.731 µM [falling, partial curve]. Moreover, the AC50 under setting [1] is 0.58 µM [falling, single point].
Consider `COc1ccc(C2C(C(=O)N3CCN(c4ccccn4)CC3)CCC(=O)N2c2ccc(OC)cc2)cc1` (stereo not drawn), for which the cell number change worked out at 76.9%. Besides, the AC50 under setting [2] was 7.31 µM [rising, partial curve]. Further, the concentration at half-maximal activity (AC50) under setting [1] was 3.66 µM [rising, partial curve].
On to `COc1ccc(S(=O)(=O)N(C)CC(=O)N2CCN(C)CC2)cc1Cl`, for which the cell number change turned out to be 2.48%. The AC50 under setting [1] is 29.1 µM [falling, single point].
With `CCCn1c(C2CCCN2c2nc(-c3ccc(C)cc3)cs2)nc2ccccc21` (stereo not drawn), the cell number change is -7.49%.
As for `CC(C)Sc1nnc(NC(=O)c2ccco2)s1`, the cell number change came out at 20.3%.
Same read-out and setting: then `COc1ccc2oc(=O)c(C(=O)N3CCN(C(=O)c4ccccc4)CC3)cc2c1`, with 9.21%.
Regarding `O=C(CC(=O)Nc1ccccc1F)Nc1ccccc1F`, the cell number change was found to be 17%. For the same molecule, the AC50 under setting [1] is 0.0366 µM [rising, full curve, poor fit].
Regarding `Cc1cccc(-c2noc(CN(C)S(=O)(=O)c3cc(Cl)ccc3Cl)n2)c1`, the concentration at half-maximal activity (AC50) is 1.03 µM [rising, full curve] under setting [2] and 0.82 µM [rising, full curve] under setting [1].
Regarding `CC(C)C(=O)Nc1ccc(C(=O)NN2C(=O)c3ccccc3C2=O)cc1`, the cell number change amounted to 14.6%. Moreover, the AC50 under setting [1] was 0.092 µM [falling, partial curve, poor fit].
Take `CC(=O)NC1(c2nnnn2CCOC(=O)Nc2ccc(Cl)cc2)CCCCC1`: the cell number change was determined as 9.7%. Further, the AC50 under setting [1] was 2.31 µM [rising, single point].

The values above are taken from PubChem BioAssay AID2685 (National Center for Advancing Translational Sciences (NCATS), 2010).
